In PubChem BioAssay AID540276 (National Center for Advancing Translational Sciences (NCATS), 2011):
The whole screen tested about 300,000 compounds, of which about 5,400 (1.8%) were called active. Inconclusive means that the source gave no clear call. Such entries were picked first, then a sample of the others. The call rests on the fitted dose curve; tested in HEK293 cells. Where the call is inconclusive, the potency comes from a doubtful curve fit.

test: qHTS for inhibitors of binding or entry into cells for Marburg Virus; settings: Marburg virus pseudotyped entry inhibition, cell reporter; series mostly up to 37.8 µM
Potency means the concentration at half of the fitted maximal effect.

Compound | Potency
Cn1c(=O)c2c(nc(NCc3ccco3)n2CCc2ccccc2)n(C)c1=O | inconclusive: 35.5 µM [inhibitor, single point]
CCN(CC)C(=S)Nc1ccc([N+](=O)[O-])cc1 | inconclusive: 0.0891 µM [inhibitor, full curve, poor fit]
CCOC(=O)C1CCN(c2nc(-c3ccc(C)cc3)nc3ccccc23)CC1 | inconclusive: 0.562 µM [inhibitor, full curve, poor fit]
CC(C)CNC(=S)N(CCCO)Cc1cc2cc3c(cc2[nH]c1=O)OCO3 | inconclusive: 1.26 µM [inhibitor, single point]
O=C(Nc1ccc(S(=O)(=O)Nc2ncccn2)cc1)c1nn(Cc2ccccc2)c(=O)c2ccccc12 | inactive
CCCCN(CCCC)CCCNC(=O)c1cc(-c2ccc(Cl)s2)nc2ccccc12 | inconclusive: 1 µM [inhibitor, full curve, poor fit]
Cc1ccc(C)c(S(=O)(=O)N/N=C/c2ccc(C(=O)O)cc2)c1 | inconclusive: 2.82 µM [inhibitor, partial curve, poor fit]
COc1ccc(OC(=O)c2cccc(S(=O)(=O)N3CCCC3)c2)cc1 | inactive
CCN(CC)C(=O)c1ccc2c3c(cccc13)C(=O)N(CCc1ccc(OC)c(OC)c1)C2=O | inconclusive: 15.8 µM [inhibitor, partial curve, poor fit]
CCN(CC)C(=O)CSc1nc2c(sc(=S)n2Cc2ccco2)c(=O)n1-c1ccccc1 | inconclusive: 9.2 µM [inhibitor, partial curve]
COc1ccc(Cc2noc(CN3CCCC(C(=O)c4cccs4)C3)n2)cc1OC (stereo not drawn) | inconclusive: 6.31 µM [activator, single point]
O=C(NCCCN1CCN(c2ccc(F)cc2)CC1)Nc1ccccc1Cl | inconclusive: 35.5 µM [inhibitor, single point]
O=C(N/C(=C/c1ccco1)C(=O)N1CCc2ccccc21)c1ccco1 | inconclusive: 0.316 µM [inhibitor, partial curve, poor fit]
Cc1cccc(Oc2ccc(NC(=O)C3CC=CCC3C(=O)O)cc2)c1 (stereo not drawn) | inconclusive: 1.12 µM [inhibitor, full curve, poor fit]
CCOc1cc(N2CCOCC2)c(OCC)cc1NC(=O)COc1ncnc2ccccc12 | inactive
Cc1cc(C)cc(NC(=O)CSc2nnc(-c3cc(C)[nH]n3)n2N)c1 | inconclusive: 0.631 µM [activator, partial curve, poor fit]
COc1ccc(-c2coc3cc(O)cc(O)c3c2=O)cc1 | inconclusive: 1.3 µM [activator, full curve]
CCC(C)Nc1nnc(SCC(=O)c2c(N)n(C3CC3)c(=O)[nH]c2=O)s1 (stereo not drawn) | inactive
CCOC(=O)N1CCN(C(=O)c2ccc(NC(=O)c3ccc(C)cc3)cc2)CC1 | inactive
COc1ccc(-c2nnc(SCC(=O)N3CCOCC3)o2)cc1 | inactive
O=C(CS(=O)c1cccc(C(F)(F)F)c1)Nc1ccccc1Cl (stereo not drawn) | inactive
CC(=O)OCCN(C)c1cc(SC(C)C)c2nonc2c1[N+](=O)[O-] | inactive
COc1cccc(N2CC(C(=O)NNC(=O)c3ccc(Cl)cc3)CC2=O)c1 (stereo not drawn) | inactive

Compound | Potency
CCOC(=O)c1oc2ccc(OC)cc2c1NC(=O)CN1CCN(C)CC1 | inconclusive: 6.51 µM [activator, single point]
O=C(COc1ccc(Cl)cc1)N(c1ccccc1Cl)C1CN2CCC1CC2 (stereo not drawn) | inconclusive: 35.5 µM [inhibitor, single point]
CCC(Sc1nc2ccsc2c(=O)n1-c1ccc(Cl)c(C)c1)C(=O)NCc1ccco1 (stereo not drawn) | inconclusive: 29.1 µM [inhibitor, single point]
COc1ccc(OCC(=O)Nc2c3c(nn2C(C)(C)C)CS(=O)(=O)C3)cc1 | inconclusive: 35.5 µM [activator, single point]
CSc1nc2ccccc2c(=O)n1Cc1ccc(F)cc1 | inconclusive: 35.5 µM [inhibitor, single point]
O=C(CC1(O)C(=O)Nc2ccccc21)c1ccccc1O (stereo not drawn) | inactive
O=C1[C@@H]2Cc3c([nH]c4ccccc34)[C@@H](c3ccccc3)N2C(=O)[C@@H]2Cc3c([nH]c4ccccc34)[C@@H](c3ccccc3)N12 | inconclusive: 14.6 µM [inhibitor, partial curve, poor fit]
O=C1C=C(O)C[C@H](c2cccs2)C1 | inactive
CC(=O)N(C)c1ccc(N=Cc2c(O)ccc3ccccc23)cc1 | inactive
Cc1cccc(-n2c3nc(=O)[nH]c(=O)c-3cc3ccc(Cl)cc32)c1C | inconclusive: 17.8 µM [inhibitor, single point]
O=C(CSc1nnc(SCc2ccccc2)s1)N/N=C/c1c[nH]c2ccccc12 | inconclusive: 3.55 µM [activator, full curve, poor fit]
C=CCN(c1ccccc1OC)S(=O)(=O)c1cccc(C(=O)NC2=NCCS2)c1 | inconclusive: 5.62 µM [inhibitor, partial curve, poor fit]
Cc1nc2cc(NC(=O)CS(=O)(=O)c3ccc(F)cc3)ccc2s1 | inconclusive: 3.16 µM [activator, single point]
COc1ccc(Cn2cc([N+](=O)[O-])nc2C)cc1[N+](=O)[O-] | inconclusive: 0.0891 µM [inhibitor, full curve, poor fit]
CCCn1c(SCC(=O)Nc2cccc(C(=O)OCC)c2)nnc1-c1ccoc1C | inconclusive: 20 µM [inhibitor, single point]
COc1ccc(OCCCn2c(C3CC(=O)N(c4ccc(F)cc4)C3)nc3ccccc32)cc1 (stereo not drawn) | inconclusive: 35.5 µM [inhibitor, partial curve, poor fit]
Nc1ccc2c(c1)N1CCN=C1S2 | inactive
Cc1ccc(NC(=O)CN(C)C(=O)CCC(=O)c2cccs2)cc1 | inactive
O=c1c(NCCc2ccccc2)c(-c2ccccc2)c1=O | inactive
Cc1cc(C)c2c(NC(=O)c3ccccc3Cl)c(C(=O)NCc3ccc(Cl)cc3)sc2n1 | inconclusive: 5.62 µM [inhibitor, single point]
CC(C)C(=O)N1CCC(n2nccc2NC(=O)CCOc2ccccc2)CC1 | inactive
O=C(O)c1ccccc1C=NN1CCCCCC1 | inactive
Cc1cc(NC(=O)CSc2nnc(C3CC3)n2C)no1 | inconclusive: 6.51 µM [activator, single point]

Compound | Potency
CCCC(C)c1nnc(NC(=O)CCS(=O)(=O)c2ccccc2)s1 (stereo not drawn) | inactive
CCCn1c(=O)c(Cc2ccccc2)c(O)c2ccccc21 | inconclusive: 0.631 µM [activator, full curve]
COc1ccc(CNC(=O)c2coc(=O)c3ccccc23)c(OC)c1 | inconclusive: 10 µM [inhibitor, partial curve, poor fit]
Cc1cc(CN(C)Cc2ccc(OCC(O)CN(C)Cc3ccccc3)cc2)on1 (stereo not drawn) | inconclusive: 1.12 µM [inhibitor, partial curve, poor fit]
O=C(CSc1nnc(-c2ccc(Cl)cc2)n1Cc1ccco1)NCc1ccc2c(c1)OCO2 | inconclusive: 25.1 µM [inhibitor, single point]
Cc1c(CC(=O)NCCc2ccccc2)c(=O)oc2c(C)c3occ(C(C)(C)C)c3cc12 | inactive
Cc1ccccc1-c1noc(-c2ccc(NCc3cccnc3)c([N+](=O)[O-])c2)n1 | inactive
COc1cc(C2Nc3cc(Cl)c(S(N)(=O)=O)cc3S(=O)(=O)N2)ccc1OCc1ccccc1 (stereo not drawn) | inactive
CC(=O)Nc1cccc(NC(=O)CSc2nccn2Cc2ccccc2)c1 | inconclusive: 10 µM [inhibitor, partial curve, poor fit]
CN(CC(=O)Nc1c(Cl)cccc1Cl)C(=O)CCC1CCCC1 | inactive
COc1ccccc1C1C(C#N)=C(N)Oc2c1oc(CO)cc2=O (stereo not drawn) | inactive
Cc1c(CC(=O)NCC(=O)O)c(=O)oc2cc3occ(-c4ccccc4)c3cc12 | inconclusive: 1.26 µM [inhibitor, full curve, poor fit]
Cc1oc(C(C)(C)C)cc1C(=O)Nc1cccc(/C=C/C(=O)O)c1 | inactive
Cc1cccc2nc(CSc3nc4ccc([N+](=O)[O-])cc4[nH]3)c(Br)n12 | inconclusive: 35.5 µM [inhibitor, single point]
Cc1ccc(C(C)C)c(OCC(=O)Nc2sc3c(c2C#N)CC(C)(C)NC3(C)C)c1 | inconclusive: 14.1 µM [inhibitor, single point]
Cc1cccc(C(=O)n2c(=S)nc3cc(C)ccn32)c1 | inconclusive: 2.51 µM [activator, partial curve, poor fit]
COc1ccc(C(=O)Nn2c(SCC(=O)NCc3ccccc3)nc3ccccc3c2=O)cc1 | inconclusive: 5.8 µM [inhibitor, partial curve, poor fit]
COC(=O)c1ccccc1NC(=O)Cn1cnc2cc(C)c(C)cc21 | inconclusive: 2.06 µM [inhibitor, partial curve, poor fit]
COC(=O)N/N=C/c1cc(C)n(-c2ccc(Br)cc2)c1C | inconclusive: 3.98 µM [inhibitor, partial curve, poor fit]
Clc1ccc(OCc2nn3c(C4CCCCC4)nnc3s2)c(Cl)c1 | inactive
O=C(Nc1ccccc1C(F)(F)F)C1CCN(S(=O)(=O)c2ccccc2)CC1 | inactive
COc1ccc(C(CNC(=O)CCNS(=O)(=O)c2ccc(Br)cc2)N2CCCC2)cc1 (stereo not drawn) | inconclusive: 28.2 µM [inhibitor, single point]

Exported as labelled records: part of the list above.
CC(=O)N(C)c1ccc(N=Cc2c(O)ccc3ccccc23)cc1
  Potency: inactive
Cc1cccc(-n2c3nc(=O)[nH]c(=O)c-3cc3ccc(Cl)cc32)c1C
  Potency: inconclusive: 17.8 µM [inhibitor, single point]
